No constants are given. Whether binding was seen depends on the method and setting. Some results given as binding are weak or reduced against the parent protein; the word gives no strength.
Key:
[1] = biological target: T1, HER2 and HER3 co-expressed on cells (HER2/3) (human) (UniProt P04626+P21860); test: flow cytometry on HEK 293 cells expressing HER2 and HER3, anti-VHH-488 detection, n=3
[2] = biological target: T1, HER2 and HER3 co-expressed on cells (HER2/3) (human); test: flow cytometry on HEK 293 cells expressing HER2 and HER3, anti-VHH-488 detection
[3] = biological target: T1, HER2 and HER3 co-expressed on cells (HER2/3) (human); test: flow cytometry on HEK 293 cells expressing HER2 and HER3, anti-VHH-488 detection, signal normalised to the highest signal, n=3

Amino acid sequences for entries named in this document (tags omitted). A change or cut given only in a name is not applied to a line headed by its entry.
UniProt P21860: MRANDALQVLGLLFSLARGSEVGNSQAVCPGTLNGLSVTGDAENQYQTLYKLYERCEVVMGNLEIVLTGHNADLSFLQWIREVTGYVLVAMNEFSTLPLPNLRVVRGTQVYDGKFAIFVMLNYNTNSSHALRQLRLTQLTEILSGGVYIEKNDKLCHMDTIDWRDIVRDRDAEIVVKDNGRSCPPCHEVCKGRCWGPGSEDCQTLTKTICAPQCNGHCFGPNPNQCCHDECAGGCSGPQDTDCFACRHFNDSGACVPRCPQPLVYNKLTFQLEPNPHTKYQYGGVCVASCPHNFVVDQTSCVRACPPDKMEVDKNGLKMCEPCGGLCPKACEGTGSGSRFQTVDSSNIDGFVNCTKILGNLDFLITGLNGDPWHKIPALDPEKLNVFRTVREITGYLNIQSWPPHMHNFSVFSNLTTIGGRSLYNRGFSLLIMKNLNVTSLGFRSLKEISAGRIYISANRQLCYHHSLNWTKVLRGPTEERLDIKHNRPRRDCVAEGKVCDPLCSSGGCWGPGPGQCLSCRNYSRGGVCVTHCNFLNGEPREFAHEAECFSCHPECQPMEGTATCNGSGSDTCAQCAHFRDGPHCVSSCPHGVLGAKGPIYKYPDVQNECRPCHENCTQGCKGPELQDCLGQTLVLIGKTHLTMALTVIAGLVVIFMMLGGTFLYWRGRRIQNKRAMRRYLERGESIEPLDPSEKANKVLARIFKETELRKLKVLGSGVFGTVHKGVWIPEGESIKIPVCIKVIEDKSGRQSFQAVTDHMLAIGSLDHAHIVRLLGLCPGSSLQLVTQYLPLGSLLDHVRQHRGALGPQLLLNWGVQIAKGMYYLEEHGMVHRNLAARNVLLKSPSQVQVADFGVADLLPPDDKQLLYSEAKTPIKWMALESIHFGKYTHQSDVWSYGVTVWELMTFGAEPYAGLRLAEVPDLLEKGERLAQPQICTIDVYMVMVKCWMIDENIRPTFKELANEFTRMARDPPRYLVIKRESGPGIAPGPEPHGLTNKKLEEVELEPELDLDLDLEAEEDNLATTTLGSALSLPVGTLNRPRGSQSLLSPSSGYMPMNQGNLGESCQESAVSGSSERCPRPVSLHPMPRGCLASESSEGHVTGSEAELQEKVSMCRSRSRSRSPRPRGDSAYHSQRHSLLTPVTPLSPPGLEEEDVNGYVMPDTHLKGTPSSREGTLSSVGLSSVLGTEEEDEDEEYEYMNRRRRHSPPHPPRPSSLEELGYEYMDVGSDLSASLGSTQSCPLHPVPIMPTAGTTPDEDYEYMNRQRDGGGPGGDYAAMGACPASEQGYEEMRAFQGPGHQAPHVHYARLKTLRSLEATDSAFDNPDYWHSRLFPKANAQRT

binding [1]: binds | binding [2]: binds | binding [3]: binds
B1: Nb46 (VHH)
VHH: QVQLQESGGGSVQAGGSLRLSCVVSGYFYYDHYYVAWFRQAPGKEREGVALINGRDSDTYYADSVKGRFTISQDSAKNTVYLQMNSLKPEDTAIYYCAANPGEAFTVLPPRVFRNWGQGTQVTVSS
notes: also called N46
